The target in assay [1] is T1, MIEF2-V5 (UniProt Q96C03).
T1 sequence: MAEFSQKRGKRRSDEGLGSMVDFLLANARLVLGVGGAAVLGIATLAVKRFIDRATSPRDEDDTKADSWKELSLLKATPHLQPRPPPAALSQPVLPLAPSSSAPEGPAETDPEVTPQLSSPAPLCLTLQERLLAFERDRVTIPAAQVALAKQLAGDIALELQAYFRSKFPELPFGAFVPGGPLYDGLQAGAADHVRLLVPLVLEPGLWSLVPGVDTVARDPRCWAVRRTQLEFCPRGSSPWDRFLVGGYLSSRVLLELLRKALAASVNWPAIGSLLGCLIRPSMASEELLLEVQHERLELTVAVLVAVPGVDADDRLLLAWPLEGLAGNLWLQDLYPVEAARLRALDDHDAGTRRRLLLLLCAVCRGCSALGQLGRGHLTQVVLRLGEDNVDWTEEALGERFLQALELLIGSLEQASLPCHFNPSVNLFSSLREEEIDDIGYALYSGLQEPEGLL
Description: co-IP; 293T lines stably expressing MIEF1-V5 or MIEF2-V5, living cells treated with 1 mM DSS for 3 h (or DMSO), lysis in 1% NP-40, anti-V5 agarose beads 2 h at room temperature; blot for endogenous Drp1.

Protein sequences, listed by entry. Tags and fused reporters are not part of them. Lines headed by an entry give the natural chain unless they say otherwise; changes in a name come on top. Chains listed by the source or under a name are the forms on record and can include a tag or linker.
UniProt Q9NQG6: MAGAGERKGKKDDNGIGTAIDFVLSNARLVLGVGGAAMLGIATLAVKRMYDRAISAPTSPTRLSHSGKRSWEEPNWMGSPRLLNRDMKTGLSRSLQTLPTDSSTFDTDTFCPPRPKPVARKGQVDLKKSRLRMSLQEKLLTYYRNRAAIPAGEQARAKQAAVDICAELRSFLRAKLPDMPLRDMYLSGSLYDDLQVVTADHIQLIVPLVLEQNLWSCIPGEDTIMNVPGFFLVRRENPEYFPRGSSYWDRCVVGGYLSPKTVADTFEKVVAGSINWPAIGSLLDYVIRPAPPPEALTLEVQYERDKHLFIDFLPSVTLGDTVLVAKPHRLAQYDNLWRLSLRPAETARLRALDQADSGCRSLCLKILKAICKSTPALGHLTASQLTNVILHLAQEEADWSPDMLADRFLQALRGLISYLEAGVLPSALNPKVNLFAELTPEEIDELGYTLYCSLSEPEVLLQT
UniProt O00429: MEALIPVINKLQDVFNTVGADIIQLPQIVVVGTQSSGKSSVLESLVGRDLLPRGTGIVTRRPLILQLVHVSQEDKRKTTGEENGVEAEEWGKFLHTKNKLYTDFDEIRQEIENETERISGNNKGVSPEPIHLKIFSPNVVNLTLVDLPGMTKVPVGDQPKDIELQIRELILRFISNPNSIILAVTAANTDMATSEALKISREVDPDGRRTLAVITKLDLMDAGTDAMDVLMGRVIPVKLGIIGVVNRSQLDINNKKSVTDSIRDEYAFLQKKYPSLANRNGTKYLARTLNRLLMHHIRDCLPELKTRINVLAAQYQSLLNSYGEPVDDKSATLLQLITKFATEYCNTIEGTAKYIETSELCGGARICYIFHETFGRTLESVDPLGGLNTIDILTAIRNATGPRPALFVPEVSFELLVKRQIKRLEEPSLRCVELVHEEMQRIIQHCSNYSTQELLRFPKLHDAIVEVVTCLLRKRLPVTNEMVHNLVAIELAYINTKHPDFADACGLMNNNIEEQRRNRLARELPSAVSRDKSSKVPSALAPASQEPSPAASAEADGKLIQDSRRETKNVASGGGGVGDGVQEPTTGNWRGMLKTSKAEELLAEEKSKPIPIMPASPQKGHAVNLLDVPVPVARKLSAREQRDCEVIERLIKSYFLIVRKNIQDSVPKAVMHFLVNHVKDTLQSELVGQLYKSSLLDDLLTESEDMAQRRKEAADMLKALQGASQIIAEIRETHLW
untagged Drp1-4A (O00429, form named): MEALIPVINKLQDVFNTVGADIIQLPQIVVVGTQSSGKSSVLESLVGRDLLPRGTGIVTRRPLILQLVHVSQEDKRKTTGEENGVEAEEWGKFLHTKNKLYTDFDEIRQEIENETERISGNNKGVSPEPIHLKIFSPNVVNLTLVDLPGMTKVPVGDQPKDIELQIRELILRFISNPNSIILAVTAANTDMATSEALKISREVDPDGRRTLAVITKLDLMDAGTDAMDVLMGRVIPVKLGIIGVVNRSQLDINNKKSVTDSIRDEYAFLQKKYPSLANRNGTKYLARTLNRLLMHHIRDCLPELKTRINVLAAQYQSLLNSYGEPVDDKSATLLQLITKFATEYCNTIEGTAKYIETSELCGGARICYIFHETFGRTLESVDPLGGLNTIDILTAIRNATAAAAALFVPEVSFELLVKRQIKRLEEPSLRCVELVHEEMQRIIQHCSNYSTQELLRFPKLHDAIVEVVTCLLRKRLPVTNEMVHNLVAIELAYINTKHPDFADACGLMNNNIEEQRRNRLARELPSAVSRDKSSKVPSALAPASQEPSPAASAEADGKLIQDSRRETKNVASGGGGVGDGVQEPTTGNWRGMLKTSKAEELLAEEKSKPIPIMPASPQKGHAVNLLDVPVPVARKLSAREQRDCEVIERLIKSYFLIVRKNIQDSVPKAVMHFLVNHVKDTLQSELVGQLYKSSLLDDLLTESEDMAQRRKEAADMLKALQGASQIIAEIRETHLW

Assay [2] concerns the target MIEF1-V5 (UniProt Q9NQG6). The description is as above.
Assay [3] concerns the target T1, MIEF2-V5. Kind of assay: co-IP; Drp1-/- 293T cells co-transfected with Drp1-WT or a Drp1 mutant and MIEF1-V5, MIEF2-V5 or Myc-Mff; in vivo cross-linking with 1% formaldehyde for 10 min; lysis in 1% NP-40; anti-V5 or anti-Myc agarose beads 2 h at room temperature; Western blot. (In general: A western blot detects proteins with antibodies after separation by electrophoresis.)

The target in assay [4] is MIEF1-V5 (UniProt Q9NQG6). The description is as above.

These are yes or no findings as the source states them, for the method shown. Binding seen in cells or lysates may run through a third protein. Some results given as binding are weak or reduced against the parent protein; the word gives no strength. For some assays here: Where a sequence is shown, tags or fusion partners need not be part of it.

“endogenous Drp1 in 293T cells (from UniProt O00429 1-736)”: the binding entry in assay [1] and in assay [2] was “binds” each time.

Turning to “untagged Drp1-4A (from UniProt O00429 1-736)”, the binding result in assay [3] and in assay [4] was “binds” each time.

Consider “untagged Drp1-A395D (from UniProt O00429 1-736)”, for which the binding entry in assay [3] and in assay [4] was “binds” throughout.

With “untagged Drp1-D218N (from UniProt O00429 1-736)”, the binding result in assay [3] and in assay [4] was “binds” each time.

For the substance “untagged Drp1-M482D (from UniProt O00429 1-736)”, the binding result in assay [3] and in assay [4] was “binds” throughout.

As to “untagged Drp1-Q34A (from UniProt O00429 1-736)”, the binding result in assay [3] and in assay [4] was “binds” in each case.

“untagged wild-type Drp1 (Drp1-WT) (from UniProt O00429 1-736)”: the binding entry in assay [3] and in assay [4] was “binds” throughout.

The values are drawn from article PMC8602864.
